Test results as given in PubChem BioAssay AID2417 (National Center for Advancing Translational Sciences (NCATS), 2010).
The campaign covered roughly 140,000 compounds. About 4,300 (3.1%) were called active. Inconclusive results, whose numbers are uncertain, are shown with a selection of clear calls.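 The calls were made as follows: active = readout at or below -70, meaning at least 70% loss of cells showing the perinucleolar compartment, a nuclear body marking cancer cells; inconclusive = readout between -30 and a set limit; inactive = the rest.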

assay: High Content Assay for Compounds that inhibit the Assembly of the Perinucleolar Compartment; details: PC3M PTB-GFP, PNC prevalence imaging, 16 h; at 10 µM; stronger effect = lower value;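 also: plate controls were DMSO wells for no effect and camptothecin positive control wells for full effect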
Summary of the method: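 Read-out is percentage of cells bearing a perinucleolar compartment, from automated 20x imaging of fixed, Hoechst-stained PC3M PTB-GFP cells. Cells were seeded 4 h, then exposed 16 h to compound (23 nl of library stock) in duplicate plates.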

| SMILES | activity change (PNC), negative = inhibition |
| --- | --- |
| CN(C1CCCCC1)S(=O)(=O)c1ccc(NC(=O)c2ccco2)cc1 | inconclusive: -30.1% |
| c1ccc(-c2ccccc2-c2nc(-c3cccnc3)no2)cc1 | active: -101% |
| CN(C)CCNC(=O)c1ccc(Cl)s1 | inconclusive: -34.9% |
| O=C(Cc1ccc2c(c1)OCCO2)N1CCN(S(=O)(=O)c2cccc(C(F)(F)F)c2)CC1 | inactive: 10.7% |
| CC1(C)C(=O)C2(CCCCC2)C(=O)OC1c1ccc(O)cc1 (stereo not given) | inactive: -28.1% |
| CC(=O)N1CCCc2cc(S(=O)(=O)Nc3ccc(C)cc3C)ccc21 | inconclusive: -61.5% |
| CNC(=O)C1=C(C)n2c(nc3ccccc32)NC1c1ccc(OC)cc1 (stereo not given) | active: -114% |
| COc1ccc(N(C)C(=O)CCC(=O)Nc2ccc3nc(N4CCOCC4)cc(C)c3c2)c(OC)c1 | inconclusive: -67.1% |
| COc1ccc(CCN(Cc2nc(-c3ccccc3)no2)Cc2nc(-c3ccccc3)no2)cc1OC | inconclusive: -44.6% |
| CCOC(=O)c1nn(-c2ccc(F)cc2)c2nc(Nc3ccccc3)cc(=O)n12 | inactive: 19.2% |
| CCOc1ccc(C(=O)NC(=S)NCc2cccnc2)cc1[N+](=O)[O-] | inactive: -5.87% |
| CC(C)Cn1c(-c2ccc(Cl)cc2)cnc1SCC(=O)N1CCOCC1 | inactive: 25.6% |
| c1ccc2c(c1)Cn1nnnc1-2 | inactive: -15.8% |
| FC(F)(F)c1cccc(OCCOCCn2cncn2)c1 | inconclusive: -59.1% |
| Cc1ccc(S(=O)(=O)Nc2ccccc2CNc2cccc(C)n2)cc1 | inconclusive: -61.5% |
| CC1(C)N=C(SCC(=O)Nc2ccc(Cl)cc2Cl)C(c2ccccc2)=N1 | inactive: -23.8% |
| CN(C)CCNCc1ccc(OC2CCCC2)cc1 | inconclusive: -48.3% |
| CSc1ccccc1C(=O)NC1CCCC1 | inactive: -8.98% |
| O=C(Cc1cccs1)N1CCC(c2nc3c(nnn3Cc3ccc(F)cc3)c(=O)[nH]2)CC1 | inconclusive: -60.9% |
| COc1ccccc1N1CCN(C/C(O)=C(\C#N)c2nc(-c3ccccc3)cs2)CC1 | inactive: 19.6% |
| COC(=O)c1ccc(NC(=O)C2CCN(S(C)(=O)=O)CC2)cc1 | inconclusive: -62.2% |
| CCOCCOc1nc2c(c(=O)n(C)c(=O)n2C)n1CCc1ccccc1 | inconclusive: -70.3% |
| CCOC(=O)C1=C(C)Nc2ncnn2C1c1c[nH]c2ccccc12 (stereo not given) | inactive: -21.2% |
| COc1ccccc1NC(=O)Nc1ccnn1C1CCCCC1 | inconclusive: -54.6% |
| COc1ccc(CC(=O)Nc2cc(C)c3c(=O)oc4ccccc4c3n2)cc1 | inconclusive: -46.8% |

Quoted at random: 2 compounds from above, in no set order.

| SMILES | activity change (PNC), negative = inhibition |
| --- | --- |
| CC1(C)N=C(SCC(=O)Nc2ccc(Cl)cc2Cl)C(c2ccccc2)=N1 | inactive: -23.8% |
| COc1ccccc1NC(=O)Nc1ccnn1C1CCCCC1 | inconclusive: -54.6% |
